Molecules are shown by their SMILES.

The data set can be described thus: Odor description.

`CC1=C(CCC=O)CCC(C(C)C)C1` (centres unmarked) [3-(4-isopropyl-2-methylcyclo-hex-1-en-1-yl)propanal]: the “Odor Description” value is given as “aldehydic, green, fatty, muguet, bourgeonal”.
Then `CC(C)CC1=CCC(CCC=O)C(C)C1` (centres unmarked) [3-(4-isobutyl-6-methylcyclohex-3-en-1-yl)propanal], with “aldehydic, green, floral, fatty, orris”.
